Assay results taken from PubChem BioAssay AID602313 (National Center for Advancing Translational Sciences (NCATS), 2012).
Screen size: about 390,000 compounds; about 760 (0.19%) were called active. The shares of active, inactive and inconclusive entries below differ from those in the screen. Calls come from the whole dose curve; as a rule, active = well fitted inhibition curve with a large enough effect; inconclusive = small, poorly fitted or top-dose-only effect; inactive = flat fitted curve, though single readings scatter. Where the call is inconclusive, the potency comes from a doubtful curve fit.

Assay: qHTS for Inhibitors of Vif-A3F Interactions: qHTS; note: nearly all actives have a fitted effect of over 65% in size
Conditions: HeLa A3F-eYFP + Vif (tagged APOBEC3F with the HIV-1 protein that degrades it), YFP fluorescence increase; series mostly up to 46.1 µM
Method in brief: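 HeLa cells stably expressing Vif plus C-terminally eYFP-tagged A3F were seeded, incubated overnight at 37 deg C, dosed with compound, incubated overnight again at 37 deg C. Yellow fluorescence (Ex 488/Em 500-530) reported blocked Vif-mediated A3F-eYFP degradation.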
Potency is the fitted concentration of half-maximal effect.

SMILES	Potency
Cc1ccc(C2N3CCCN23)cc1 (configuration not stated)	inconclusive: 31.6 µM [inhibitor, partial curve, poor fit]
Cc1cc(/C=C2\C(=O)NC(=O)N(c3ccc(Br)cc3)C2=O)c(C)n1C	inconclusive: 4.47 µM [inhibitor, partial curve, poor fit]
CC(C)N1C(=O)/C(=C/C=C/c2ccco2)C(=O)N(Cc2ccco2)C1=O	inconclusive: 17.8 µM [inhibitor, partial curve, poor fit]
COC(=O)N(c1ccccc1)P1(=S)OCCO1	inactive
FC(F)(F)c1cccc(C2NCc3ccccc3-n3cccc32)c1 (configuration not stated)	inconclusive: 12.6 µM [inhibitor, partial curve, poor fit]
Nc1ccc2c3c(cccc13)-c1ccccc1-2	inconclusive: 3.16 µM [inhibitor, full curve, poor fit]
CC(=O)c1c(O)n(-c2cccc(Cl)c2)c(=O)[nH]c1=O (tested in a mixture with another compound)	inconclusive: 35.5 µM [inhibitor, single point]
CCN(CCO)c1ccc(N=Cc2c(O)n(C)c(=S)[nH]c2=O)cc1	inconclusive: 11.2 µM [inhibitor, partial curve, poor fit]
Cc1cc(N2CCCC2)ccc1C=C(C#N)C#N	inconclusive: 3.98 µM [inhibitor, full curve, poor fit]
C1=NCCc2c1[nH]c1ccccc21	inconclusive: 20 µM [inhibitor, partial curve, poor fit]
O=c1[nH]c(=O)n(CCC2=CCCCC2)c(O)c1C=NC1CCN(Cc2ccccc2)CC1	inconclusive: 35.5 µM [inhibitor, single point]
CCC1(C)OC(c2ccccc2)=C/C(=C/C=C2C(=O)NC(=O)NC2=O)O1 (configuration not stated)	inconclusive: 22.4 µM [inhibitor, partial curve, poor fit]
O=[N+]([O-])c1ccc(N(CCO)CCO)c2c1no[n+]2[O-]	inconclusive: 0.562 µM [inhibitor, partial curve, poor fit]
Cn1cc(/C=C2\C(=O)NC(=O)N(c3ccccc3)C2=O)c2ccccc21	inconclusive: 35.5 µM [inhibitor, single point]
Oc1ccc(/C=N/NP(=S)(c2ccccc2)c2ccccc2)cc1O	inactive
N#CC1=C(N)Oc2c(c(=O)oc3ccccc23)C1c1ccc([N+](=O)[O-])o1 (configuration not stated)	inconclusive: 11.2 µM [inhibitor, partial curve, poor fit]
COc1cc(C(=O)N/N=C/c2ccc(OC(=O)N3CCOCC3)cc2)cc(OC)c1OC	inconclusive: 14.1 µM [inhibitor, single point]

Part of the list above in order of SMILES length, falling.
SMILES	Potency
COc1cc(C(=O)N/N=C/c2ccc(OC(=O)N3CCOCC3)cc2)cc(OC)c1OC	inconclusive: 14.1 µM [inhibitor, single point]
Cn1cc(/C=C2\C(=O)NC(=O)N(c3ccccc3)C2=O)c2ccccc21	inconclusive: 35.5 µM [inhibitor, single point]
FC(F)(F)c1cccc(C2NCc3ccccc3-n3cccc32)c1 (configuration not stated)	inconclusive: 12.6 µM [inhibitor, partial curve, poor fit]
